Results from article PMC6123443, “Selective Pressure for Biofilm Formation in Bacillus subtilis: Differential Effect of Mutations in the Master Regulator SinR on Bistability” (mBio, 2018).
The exact form of at least one protein or probe is not confirmed. For some assays here: A weaker result is weaker than the reference pair of the same experiment.

Key:
Experiment in all cases: fluorescence polarization, SinI displacement
[1] = target: SinR wild type (Bacillus subtilis) (UniProt P06533); conditions: 5 uM SinR + equimolar SinI (~85% of bound DNA released); 10 mM Tris-HCl pH 8.0, 100 mM NaCl, 1 mM EDTA; 10 nM labeled duplex, SinR diluted from 20 uM; temperature not stated; recombinant protein; label: 5'-fluorescein (FAM) on strand 1
[2] = target: SinR W104L (Bacillus subtilis) (UniProt P06533); conditions: 5 uM SinR + 10-fold excess SinI (~60% of bound DNA released); 10 mM Tris-HCl pH 8.0, 100 mM NaCl, 1 mM EDTA; 10 nM labeled duplex, SinR diluted from 20 uM; temperature not stated; recombinant protein; label: 5'-fluorescein (FAM) on strand 1
[3] = target: SinR S43A (Bacillus subtilis) (UniProt P06533); conditions: 5 uM SinR + equimolar or more SinI (displacement almost complete); 10 mM Tris-HCl pH 8.0, 100 mM NaCl, 1 mM EDTA; 10 nM labeled duplex, SinR diluted from 20 uM; temperature not stated; recombinant protein; label: 5'-fluorescein (FAM) on strand 1
[4] = target: SinR A85T (Bacillus subtilis) (UniProt P06533); conditions: 5 uM SinR + SinI (displacement similar to wild type); 10 mM Tris-HCl pH 8.0, 100 mM NaCl, 1 mM EDTA; 10 nM labeled duplex, SinR diluted from 20 uM; temperature not stated; recombinant protein; label: 5'-fluorescein (FAM) on strand 1
[5] = target: SinR W104R (Bacillus subtilis) (UniProt P06533); conditions: 5 uM SinR + 10-fold excess SinI (~60% of bound DNA released); 10 mM Tris-HCl pH 8.0, 100 mM NaCl, 1 mM EDTA; 10 nM labeled duplex, SinR diluted from 20 uM; temperature not stated; recombinant protein; label: 5'-fluorescein (FAM) on strand 1

Sequence: ATTGTTCTCTAAAGAGAACTT (double strand)
- binding signal [1]: 15 % DNA bound
- binding signal [2]: 40 % DNA bound
- binding result [3]: binds more weakly
- binding result [4]: binds more weakly
- binding signal [5]: 40 % DNA bound
